Data from PubChem BioAssay AID624297 (National Center for Advancing Translational Sciences (NCATS), 2012).
About 6,200 (1.8%) of roughly 340,000 compounds were called active. Inconclusive means that the source gave no clear call. Such entries were picked first, then a sample of the others. Calls follow the shape of the dose curve; as a rule, active = well fitted activation curve with a large enough effect; inconclusive = small, poorly fitted or top-dose-only effect; inactive = no such curve, though single readings can be large or run the other way. Potencies of inconclusive entries are doubtful fits and often do not repeat.
Potency is read from the fitted curve at half-maximal effect.

Experiment: A quantitative high throughput screen for small molecules that induce DNA re-replication in SW480 colon adenocarcinoma cells. Also: nearly all actives have a fitted effect of over 55% in size.
Conditions: Hoechst DNA content imaging, 48 h; series mostly up to 46.1 µM
Summary of the method: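 DNA re-replication was detected as more nuclei of elevated Hoechst intensity after 48 hr exposure to compound (23 nL pinned per well of 250 cells).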
In the case of `CCOC(=O)c1c(-c2ccc(OC)cc2)csc1/N=C/C1=C(O)CCCC1=O`, the Potency is reported as inconclusive: 29.1 µM [activator, single point].
With `CC(C)CCn1c(=O)c(C(=O)N/N=C/c2cccc(F)c2)c(O)c2ccccc21` the Potency was “inactive”.
In the case of `COc1ccc(-c2ccc3c(c2)C2CC3CCN2Cc2ccc(OC(F)(F)F)cc2)cc1` (stereo not drawn), the Potency is reported as inconclusive: 0.461 µM [activator, partial curve, poor fit].
For `CN(c1ccc(OCC(=O)OCC(=O)Nc2ccc(Br)cc2)cc1)S(=O)(=O)c1cccs1`, the Potency was inconclusive: 1.64 µM [activator, full curve, poor fit].
With `COc1cc(NC2c3ccccc3C(=O)N2Cc2ccccc2Cl)cc(OC)c1` (stereo not drawn) the Potency was inconclusive: 29.1 µM [activator, partial curve, poor fit].
In the case of `COc1ccc(OCC(=O)N2CCC3(CC2)CC(=O)c2ccccc2O3)cc1`, the Potency is reported as inconclusive: 29.1 µM [activator, partial curve, poor fit].
With `COc1ccc(Oc2nc3c(C)cccn3c(=O)c2/C=C(\C#N)C(N)=O)cc1` the Potency was inconclusive: 6.51 µM [activator, single point].
With `O=C(NN1C(=O)c2ccccc2NC1c1cccnc1)c1ccc([N+](=O)[O-])cc1` (stereo not drawn) the Potency was inconclusive: 5.8 µM [activator, partial curve, poor fit].
For `Cc1ccc(-n2c(=O)c(C#N)cc3c(=O)n4ccccc4nc32)cc1`, the Potency was active: 2.06 µM.
In the case of `N#Cc1c(SCC(=O)Nc2nccs2)sc2c(O)cc(=O)[nH]c12`, the Potency is reported as “inactive”.
With `CCN(CC)c1ccc(/C=N/N(c2ccccc2)c2ccccc2)c(O)c1` the Potency was inconclusive: 16.4 µM [activator, single point].
With `Cc1coc(C)c1C(=O)CC1(O)C(=O)N(C)c2ccc(Cl)cc21` (stereo not drawn) the Potency was inconclusive: 16.4 µM [activator, single point].
In the case of `Cc1ccc(S(=O)(=O)NCCC(=O)O)cc1`, the Potency is reported as inconclusive: 2.06 µM [activator, full curve].
For `Cc1cccc2c1-c1sc(C(=O)NCCCN3CCc4ccccc4C3)cc1CO2`, the Potency was inconclusive: 16.4 µM [activator, single point].
In the case of `CN1/C(=C\C(=O)c2cccs2)C(C)(C)c2ccccc21`, the Potency is reported as inconclusive: 2.06 µM [activator, single point].
For `Clc1ccc(C(Cn2ccnc2)OCc2c(Cl)cccc2Cl)c(Cl)c1` (stereo not drawn), the Potency was inconclusive: 1.3 µM [activator, single point].
With `COc1ccc(/C=C2\SC(=S)N(CCC(=O)Nc3ccc(C(=O)O)cc3)C2=O)cc1` the Potency was inconclusive: 16.4 µM [activator, partial curve, poor fit].
For `COc1ccc(CNCCCNCc2ccc(OC)c(OC)c2)cc1OC`, the Potency was inconclusive: 29.1 µM [activator, single point].
In the case of `COc1ccc(NC(=S)N/N=C2/CCCc3c(C)cc(C)cc32)cc1`, the Potency is reported as “inactive”.
For `CCC(C)(C)n1nnnc1C(c1cc2cc(OC)c(OC)cc2[nH]c1=O)N1CCc2ccccc21` (stereo not drawn), the Potency was inconclusive: 6.31 µM [activator, partial curve, poor fit].
In the case of `CCCOc1ccc(/C=N/Nc2cc(N3CCOCC3)ncn2)c(O)c1`, the Potency is reported as inconclusive: 3.66 µM [activator, partial curve, poor fit].
With `CCC(=O)N1CCN(c2ccc(NC(=O)c3ccc(C#N)cc3F)cc2Cl)CC1` the Potency was inconclusive: 32.6 µM [activator, partial curve, poor fit].
With `COc1ccc(C(=O)Nn2c(C)nc3ccccc3c2=O)cc1[N+](=O)[O-]` the Potency was “inactive”.
For `O=C(N/N=C/c1ccc2c(c1)OCO2)c1ccc2ccccc2n1`, the Potency was inconclusive: 18.4 µM [activator, single point].
With `Cc1ccc(CNC(=O)C2CN(S(C)(=O)=O)c3cc(Cl)ccc3O2)cc1` (stereo not drawn) the Potency was “inactive”.
In the case of `COc1ccc2oc(C(=O)c3ccccc3)c(N)c2c1`, the Potency is reported as inconclusive: 29.1 µM [activator, partial curve, poor fit].
With `COc1ccc(/C=C/C(=O)Nc2ccc(NC(C)=O)cc2)cc1S(=O)(=O)N1CCOCC1` the Potency was inconclusive: 29.1 µM [activator, single point].
In the case of `CC[n+]1c(/C=C/N(C)c2ccccc2)n(-c2ccccc2)c2ccc(-c3nc4ccccc4s3)cc21`, the Potency is reported as active: 16.4 µM.
In the case of `O=C1C=CC(=O)N1c1ccccc1N1C(=O)C=CC1=O`, the Potency is reported as active: 2.31 µM.
With `COc1ccc2oc(-c3ccco3)cc(=O)c2c1` the Potency was “inactive”.
In the case of `CCc1cc(=O)[nH]c(SCC(=O)N2CCC(Cc3ccccc3)CC2)n1`, the Potency is reported as inconclusive: 29.1 µM [activator, single point].
With `CC1(C)Oc2ccc3ccc(=O)oc3c2/C(=C/NNC(N)=S)C1=O` the Potency was inconclusive: 16.4 µM [activator, single point].
With `C=CCS(=O)(=O)c1nc2ccccc2s1` the Potency was inconclusive: 18.4 µM [activator, single point].
With `COc1ccc(C(=O)Nc2sc(C(=O)N(C)C)c(C)c2C#N)cc1[N+](=O)[O-]` the Potency was inconclusive: 23.1 µM [activator, partial curve, poor fit].
With `CC(C)(C)c1ccc(CN2N=Nc3ccccc3S2(=O)=O)cc1` the Potency was inconclusive: 3.26 µM [activator, full curve].
In the case of `O=[N+]([O-])c1ccc2c(c1)c1ccccc1n2CCO`, the Potency is reported as inconclusive: 0.092 µM [activator, full curve, poor fit].
In the case of `O=C(Cc1ccc(Cl)cc1)Nc1ccncc1`, the Potency is reported as “inactive”.
For `O=C(COC(=O)c1cc(-c2ccco2)nc2ccccc12)NCc1ccccc1`, the Potency was “inactive”.
With `Cc1ccc(NC(=O)CCc2c(C)nn(-c3ccc(N4CCCCC4)nn3)c2C)cc1` the Potency was inconclusive: 0.116 µM [activator, full curve, poor fit].
In the case of `COc1ccc(C(=O)c2cc(C(C)=O)c(Nc3ccccc3)s2)cc1`, the Potency is reported as inconclusive: 25.9 µM [activator, single point].
For `Cc1ccc(S(=O)(=O)ON2C(=O)c3ccccc3C2=O)c(C)c1`, the Potency was inconclusive: 4.61 µM [activator, full curve].
With `CC(Oc1cccnc1[N+](=O)[O-])C(=O)Nc1ccc(F)cc1` (stereo not drawn) the Potency was inconclusive: 1.84 µM [activator, partial curve, poor fit].
For `Cn1cccc1CC(=O)NNC(=S)NC(=O)c1ccccc1Br`, the Potency was inconclusive: 20.6 µM [activator, single point].
For `Cc1cc(=O)[nH]c(N/N=C/c2ccc(-c3ccc(F)cc3)o2)n1`, the Potency was inconclusive: 23.1 µM [activator, single point].
With `CCc1ccccc1N(C(=O)c1cccs1)C1C=CS(=O)(=O)C1` (stereo not drawn) the Potency was inconclusive: 23.1 µM [activator, single point].
With `Cc1ccc(Cn2c(=N)c(C(=O)NCC3CCCO3)cc3c(=O)n4ccccc4nc32)cc1` (stereo not drawn) the Potency was active: 18.4 µM.
For `Cc1ccc2nc(-c3ccc(NS(C)(=O)=O)cc3)cc(-c3ccccc3)c2c1`, the Potency was “inactive”.
For `O=C1c2ccccc2NC(c2cccc(O)c2)N1c1ccccc1` (stereo not drawn), the Potency was inconclusive: 18.4 µM [activator, single point].
With `O=C1OC(Oc2ccc(Br)cc2)(c2ccccc2)c2ccccc21` (stereo not drawn) the Potency was inconclusive: 18.4 µM [activator, single point].
With `COC(=O)CSc1nnc(-c2sc3ccccc3c2Cl)o1` the Potency was “inactive”.
For `COc1ccc(-c2ccc(-c3noc(-c4cccs4)n3)c(OC)n2)cc1`, the Potency was inconclusive: 23.1 µM [activator, partial curve, poor fit].
In the case of `Cc1cccc(C(=O)N(CC(=O)Nc2sc(C)c(C)c2C(N)=O)C2CCCC2)c1`, the Potency is reported as “inactive”.
In the case of `Cc1nn(-c2ccccc2)c(Cl)c1/C=C/C(=O)c1ccc(O)cc1`, the Potency is reported as inconclusive: 29.1 µM [activator, partial curve, poor fit].
For `COc1ccc(NC(=O)c2oc3ccccc3c2NC(=O)c2ccco2)c(OC)c1`, the Potency was “inactive”.
In the case of `Cc1cc(C)n(-c2nnc(NCc3ccc(Cl)cc3)nn2)n1`, the Potency is reported as active: 11.6 µM.
In the case of `COc1ccc(-c2cnc3c(c2)CCC3(C#N)C#N)cc1`, the Potency is reported as active: 3.26 µM.
In the case of `CCc1ccccc1N(C)S(=O)(=O)c1cc(-c2cc(C)no2)ccc1OC`, the Potency is reported as inconclusive: 29.1 µM [activator, single point].
In the case of `O=C(c1ccc2ccccc2c1)N1CCN(S(=O)(=O)/C=C/c2ccccc2)CC1`, the Potency is reported as inconclusive: 14.6 µM [activator, single point].
With `COc1ccc(NC(=O)NC2CCCc3ccccc32)cc1` (stereo not drawn) the Potency was inconclusive: 0.164 µM [activator, full curve, poor fit].
In the case of `O=C(NC1CCC(NC(=O)C(F)(F)C(F)F)CC1)C(F)(F)C(F)F` (stereo not drawn), the Potency is reported as inconclusive: 29.1 µM [activator, single point].
With `Oc1ccccc1-c1cncn1Cc1ccccc1` the Potency was inconclusive: 3.26 µM [activator, full curve, poor fit].
With `Cc1nc(Cl)sc1C(=O)Nc1ccccc1` the Potency was inconclusive: 16.4 µM [activator, single point].
For `Cc1c(C(=O)N/N=C/c2ccccc2)[nH]c2ccc(Cl)cc12`, the Potency was active: 20.6 µM.
For `O=C(O)CSc1nnc(-c2cccnc2)n1Cc1ccccc1`, the Potency was “inactive”.
With `Cc1ccc(NCCN(C)C)c2c(=O)c3cc(O)ccc3sc12` the Potency was inconclusive: 1.46 µM [activator, partial curve].
For `CC(Oc1cccnc1[N+](=O)[O-])C(=O)Nc1cccc(Cl)c1` (stereo not drawn), the Potency was “inactive”.
In the case of `COC(=O)c1sc2ccccc2c1-n1cccc1C(=O)C(=O)Nc1ccc(F)cc1`, the Potency is reported as “inactive”.
For `CN1C(=O)/C(=C/c2ccc(OCc3ccc(F)cc3)cc2)NC1=S`, the Potency was inconclusive: 29.1 µM [activator, single point].
